PubChem BioAssay AID1259308 | NCATS | 2017

Test: 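Genes whose loss raises luciferase production in HEK293 cells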 (primary screen)
Cells: human HEK293 embryonic kidney cells stably expressing firefly luciferase (HEK-CMV-Luc2-Hygro)
Knock-down reagent: single siRNA against human genes, 0.8 pmol siRNA per well
Time to read-out: 72 h
Measurement: 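Luciferase light (ONE-Glo) measured on one replicate plate set and viability (CellTiter-Glo) on the other, scaled to a negative control siRNA, with robust z-scores and luciferase per cell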
Scale: total luciferase, z-score: higher = more reporter protein produced
Hit rule: 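An siRNA counts as active if its total luciferase robust z-score exceeds 3; genes with two or more such siRNAs out of three were retested with fresh siRNAs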
Meaning of the calls: active = raised luciferase; inactive = no rise
In all, the deposit lists about 59,000 reagents; this is an unselected part. Over the whole deposit, about 1,510 (2.6%) were called active. 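Calls use total luciferase alone and ignore viability, so some active siRNAs may act by altering cell number.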 Reagents against one gene are numbered here. Further read-outs or replicates are left out here.

gene | reagent no. | total luciferase, z-score | Call
ROR1 (ROR family WNT receptor 1) | 1 | 0.118 | inactive
ROR1 (ROR family WNT receptor 1) | 2 | -0.0231 | inactive
ROR1 (ROR family WNT receptor 1) | 3 | -0.0105 | inactive
APOL2 (apolipoprotein L2) | 1 | 0.723 | inactive
APOL2 (apolipoprotein L2) | 2 | 1.97 | inactive
APOL2 (apolipoprotein L2) | 3 | -0.0321 | inactive
MRPL17 (mitochondrial ribosomal protein L17) | 1 | -0.384 | inactive
MRPL17 (mitochondrial ribosomal protein L17) | 2 | -0.45 | inactive
MRPL17 (mitochondrial ribosomal protein L17) | 3 | -0.787 | inactive
PPP2R5B (protein phosphatase 2 regulatory subunit B'beta) | 1 | -0.839 | inactive
PPP2R5B (protein phosphatase 2 regulatory subunit B'beta) | 2 | 1.66 | inactive
PPP2R5B (protein phosphatase 2 regulatory subunit B'beta) | 3 | -1.66 | inactive
CLC (Charcot-Leyden crystal galectin) | 1 | 1.53 | inactive
CLC (Charcot-Leyden crystal galectin) | 2 | 0.296 | inactive
CLC (Charcot-Leyden crystal galectin) | 3 | 0.595 | inactive
RBM6 (RNA binding motif protein 6) | 1 | -0.47 | inactive
RBM6 (RNA binding motif protein 6) | 2 | 1.4 | inactive
RBM6 (RNA binding motif protein 6) | 3 | -2 | inactive
FGF14 (fibroblast growth factor 14) | 1 | -0.71 | inactive
FGF14 (fibroblast growth factor 14) | 2 | -1.27 | inactive
FGF14 (fibroblast growth factor 14) | 3 | 0.52 | inactive
GABRQ (gamma-aminobutyric acid type A receptor subunit theta) | 1 | -0.108 | inactive
GABRQ (gamma-aminobutyric acid type A receptor subunit theta) | 2 | -0.125 | inactive
GABRQ (gamma-aminobutyric acid type A receptor subunit theta) | 3 | -0.089 | inactive
SLC9C1 | 1 | -0.115 | inactive
SLC9C1 | 2 | -1.02 | inactive
SLC9C1 | 3 | -0.475 | inactive
C1orf52 (chromosome 1 open reading frame 52) | 1 | -1.23 | inactive
C1orf52 (chromosome 1 open reading frame 52) | 2 | -0.192 | inactive
C1orf52 (chromosome 1 open reading frame 52) | 3 | 0.374 | inactive
OLFML2B (olfactomedin like 2B) | 1 | 0.408 | inactive
OLFML2B (olfactomedin like 2B) | 2 | 1.08 | inactive
OLFML2B (olfactomedin like 2B) | 3 | -0.093 | inactive
SKI (SKI proto-oncogene) | 1 | -1.79 | inactive
SKI (SKI proto-oncogene) | 2 | -1.3 | inactive
SKI (SKI proto-oncogene) | 3 | -0.727 | inactive
CYP51A1 (cytochrome P450 family 51 subfamily A member 1) | 1 | -1.32 | inactive
CYP51A1 (cytochrome P450 family 51 subfamily A member 1) | 2 | 0.959 | inactive
CYP51A1 (cytochrome P450 family 51 subfamily A member 1) | 3 | -0.803 | inactive
DOHH (deoxyhypusine hydroxylase) | 1 | 0.373 | inactive
DOHH (deoxyhypusine hydroxylase) | 2 | 0.258 | inactive
DOHH (deoxyhypusine hydroxylase) | 3 | -0.3 | inactive
LCN6 (lipocalin 6) | 1 | -0.177 | inactive
LCN6 (lipocalin 6) | 2 | -0.602 | inactive
LCN6 (lipocalin 6) | 3 | -0.474 | inactive
IPCEF1 (interaction protein for cytohesin exchange factors 1) | 1 | 0.997 | inactive
IPCEF1 (interaction protein for cytohesin exchange factors 1) | 2 | -0.218 | inactive
IPCEF1 (interaction protein for cytohesin exchange factors 1) | 3 | 0.532 | inactive
KIF23 (kinesin family member 23) | 1 | -0.752 | inactive
KIF23 (kinesin family member 23) | 2 | 0.128 | inactive
KIF23 (kinesin family member 23) | 3 | -0.228 | inactive
F12 (coagulation factor XII) | 1 | -0.835 | inactive
F12 (coagulation factor XII) | 2 | 0.517 | inactive
F12 (coagulation factor XII) | 3 | -0.137 | inactive
RNASEH2C (ribonuclease H2 subunit C) | 1 | 0.576 | inactive
RNASEH2C (ribonuclease H2 subunit C) | 2 | -0.301 | inactive
RNASEH2C (ribonuclease H2 subunit C) | 3 | -0.137 | inactive
MLANA (melan-A) | 1 | 0.998 | inactive
MLANA (melan-A) | 2 | -0.661 | inactive
MLANA (melan-A) | 3 | 1.03 | inactive
KDM2A (lysine demethylase 2A) | 1 | -0.543 | inactive
KDM2A (lysine demethylase 2A) | 2 | -0.583 | inactive
KDM2A (lysine demethylase 2A) | 3 | -0.225 | inactive
OR5H6 (olfactory receptor family 5 subfamily H member 6) | 1 | -0.282 | inactive
OR5H6 (olfactory receptor family 5 subfamily H member 6) | 2 | 0.833 | inactive
OR5H6 (olfactory receptor family 5 subfamily H member 6) | 3 | -0.396 | inactive
BRMS1 (BRMS1 transcriptional repressor and anoikis regulator) | 1 | -0.093 | inactive
BRMS1 (BRMS1 transcriptional repressor and anoikis regulator) | 2 | 0.46 | inactive
BRMS1 (BRMS1 transcriptional repressor and anoikis regulator) | 3 | -1.13 | inactive
SMCO3 (single-pass membrane protein with coiled-coil domains 3) | 1 | 0.0436 | inactive
SMCO3 (single-pass membrane protein with coiled-coil domains 3) | 2 | 0.155 | inactive
SMCO3 (single-pass membrane protein with coiled-coil domains 3) | 3 | -0.137 | inactive
OR14I1 (olfactory receptor family 14 subfamily I member 1) | 1 | 0.827 | inactive
OR14I1 (olfactory receptor family 14 subfamily I member 1) | 2 | -0.369 | inactive
OR14I1 (olfactory receptor family 14 subfamily I member 1) | 3 | -0.346 | inactive

Part of the list above, set out differently:
RNASEH2C (ribonuclease H2 subunit C) #3
- total luciferase, z-score: -0.137
- Call: inactive

MLANA (melan-A) #1
- total luciferase, z-score: 0.998
- Call: inactive

MLANA (melan-A) #2
- total luciferase, z-score: -0.661
- Call: inactive

MLANA (melan-A) #3
- total luciferase, z-score: 1.03
- Call: inactive

KDM2A (lysine demethylase 2A) #1
- total luciferase, z-score: -0.543
- Call: inactive

KDM2A (lysine demethylase 2A) #2
- total luciferase, z-score: -0.583
- Call: inactive

KDM2A (lysine demethylase 2A) #3
- total luciferase, z-score: -0.225
- Call: inactive

OR5H6 (olfactory receptor family 5 subfamily H member 6) #1
- total luciferase, z-score: -0.282
- Call: inactive

OR5H6 (olfactory receptor family 5 subfamily H member 6) #2
- total luciferase, z-score: 0.833
- Call: inactive

OR5H6 (olfactory receptor family 5 subfamily H member 6) #3
- total luciferase, z-score: -0.396
- Call: inactive
